Experimental data published in the supplement of paper PMC6411743.
± gives the standard deviation of the averaged measurements. This is a selection; strong and weak results do not stand in their true shares.

Chains of the proteins cited; added tags and fusions are not shown. Lines headed by an entry give the natural chain unless they say otherwise; changes in a name come on top.
UniProt O96008: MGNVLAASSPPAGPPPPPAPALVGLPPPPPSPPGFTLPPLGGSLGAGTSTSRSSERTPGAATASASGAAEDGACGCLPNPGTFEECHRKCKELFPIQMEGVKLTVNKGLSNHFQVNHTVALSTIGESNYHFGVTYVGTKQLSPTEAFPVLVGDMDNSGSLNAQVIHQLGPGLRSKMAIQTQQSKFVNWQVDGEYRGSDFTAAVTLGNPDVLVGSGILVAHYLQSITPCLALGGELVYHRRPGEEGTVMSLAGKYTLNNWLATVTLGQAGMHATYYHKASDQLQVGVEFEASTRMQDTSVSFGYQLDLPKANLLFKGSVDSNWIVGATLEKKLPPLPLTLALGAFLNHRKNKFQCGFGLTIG
UniProt P10114: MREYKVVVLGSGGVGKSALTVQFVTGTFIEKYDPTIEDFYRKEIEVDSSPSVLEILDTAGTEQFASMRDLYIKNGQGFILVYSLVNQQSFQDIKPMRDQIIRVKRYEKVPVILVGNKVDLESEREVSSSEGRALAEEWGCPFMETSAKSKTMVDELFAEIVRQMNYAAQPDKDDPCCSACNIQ
UniProt P05387, whole entry: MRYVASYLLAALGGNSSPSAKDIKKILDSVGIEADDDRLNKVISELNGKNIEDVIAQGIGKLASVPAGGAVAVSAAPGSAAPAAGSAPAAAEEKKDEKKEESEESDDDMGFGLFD
UniProt P05161, whole entry: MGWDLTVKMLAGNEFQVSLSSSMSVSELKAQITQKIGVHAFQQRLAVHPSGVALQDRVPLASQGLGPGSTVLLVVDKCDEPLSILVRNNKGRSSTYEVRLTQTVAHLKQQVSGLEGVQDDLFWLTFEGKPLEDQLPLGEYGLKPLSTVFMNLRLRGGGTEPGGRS
UniProt P07311: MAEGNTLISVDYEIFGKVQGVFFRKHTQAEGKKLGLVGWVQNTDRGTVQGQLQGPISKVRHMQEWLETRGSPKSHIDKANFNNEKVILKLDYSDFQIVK
UniProt P14209: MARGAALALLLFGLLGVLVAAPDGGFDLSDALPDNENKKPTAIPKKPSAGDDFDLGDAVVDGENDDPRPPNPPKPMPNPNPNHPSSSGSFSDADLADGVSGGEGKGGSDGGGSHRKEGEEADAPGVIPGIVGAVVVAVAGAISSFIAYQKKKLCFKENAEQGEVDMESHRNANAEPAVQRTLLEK
UniProt P01137, whole entry: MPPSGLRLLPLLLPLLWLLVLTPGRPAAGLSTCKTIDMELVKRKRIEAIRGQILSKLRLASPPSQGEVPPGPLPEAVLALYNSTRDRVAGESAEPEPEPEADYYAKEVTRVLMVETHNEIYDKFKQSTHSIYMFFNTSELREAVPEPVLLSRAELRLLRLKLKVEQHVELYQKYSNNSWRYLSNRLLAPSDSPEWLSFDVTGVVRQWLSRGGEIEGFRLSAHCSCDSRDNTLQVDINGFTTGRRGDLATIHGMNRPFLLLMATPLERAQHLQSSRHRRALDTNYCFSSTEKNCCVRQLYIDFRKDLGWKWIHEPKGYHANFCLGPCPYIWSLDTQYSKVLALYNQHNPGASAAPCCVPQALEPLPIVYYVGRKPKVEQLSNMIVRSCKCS
UniProt P07814: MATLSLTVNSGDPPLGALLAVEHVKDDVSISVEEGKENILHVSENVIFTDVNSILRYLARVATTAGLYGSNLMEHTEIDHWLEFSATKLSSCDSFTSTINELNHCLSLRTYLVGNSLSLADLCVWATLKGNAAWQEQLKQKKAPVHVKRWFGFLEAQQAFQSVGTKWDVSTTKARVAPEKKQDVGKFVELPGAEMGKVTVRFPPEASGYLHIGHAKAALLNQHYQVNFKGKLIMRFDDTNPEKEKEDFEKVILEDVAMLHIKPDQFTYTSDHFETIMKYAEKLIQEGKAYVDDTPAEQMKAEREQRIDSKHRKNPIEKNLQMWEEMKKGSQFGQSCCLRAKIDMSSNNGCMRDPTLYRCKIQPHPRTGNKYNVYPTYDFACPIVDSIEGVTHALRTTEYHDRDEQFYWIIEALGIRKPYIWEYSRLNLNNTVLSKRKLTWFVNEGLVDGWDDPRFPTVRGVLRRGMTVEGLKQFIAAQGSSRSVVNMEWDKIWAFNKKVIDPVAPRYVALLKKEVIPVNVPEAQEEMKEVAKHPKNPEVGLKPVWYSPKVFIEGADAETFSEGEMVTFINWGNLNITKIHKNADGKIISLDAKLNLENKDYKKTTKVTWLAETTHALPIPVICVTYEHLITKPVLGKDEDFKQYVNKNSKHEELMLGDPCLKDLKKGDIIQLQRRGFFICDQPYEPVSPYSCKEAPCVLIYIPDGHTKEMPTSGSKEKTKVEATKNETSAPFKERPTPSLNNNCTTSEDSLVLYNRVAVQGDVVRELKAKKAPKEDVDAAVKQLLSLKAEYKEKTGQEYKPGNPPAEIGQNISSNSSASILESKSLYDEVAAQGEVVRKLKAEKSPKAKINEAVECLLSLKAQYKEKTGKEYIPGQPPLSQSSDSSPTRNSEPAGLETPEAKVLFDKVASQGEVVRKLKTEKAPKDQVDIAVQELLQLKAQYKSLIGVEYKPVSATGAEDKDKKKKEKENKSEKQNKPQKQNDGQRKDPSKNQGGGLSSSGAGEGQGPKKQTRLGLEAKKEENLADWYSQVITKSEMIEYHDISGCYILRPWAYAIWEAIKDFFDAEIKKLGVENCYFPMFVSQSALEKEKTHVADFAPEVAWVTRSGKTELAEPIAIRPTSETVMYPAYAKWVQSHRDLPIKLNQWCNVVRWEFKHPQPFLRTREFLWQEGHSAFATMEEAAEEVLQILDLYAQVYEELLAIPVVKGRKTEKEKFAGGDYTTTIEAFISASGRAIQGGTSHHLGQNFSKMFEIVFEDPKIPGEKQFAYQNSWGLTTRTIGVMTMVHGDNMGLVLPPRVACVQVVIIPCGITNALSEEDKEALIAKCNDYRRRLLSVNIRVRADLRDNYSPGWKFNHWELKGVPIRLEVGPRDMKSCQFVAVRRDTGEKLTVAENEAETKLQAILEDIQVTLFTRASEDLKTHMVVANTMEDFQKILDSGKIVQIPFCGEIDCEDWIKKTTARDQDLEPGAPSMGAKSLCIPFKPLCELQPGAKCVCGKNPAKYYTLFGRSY
UniProt P06748, whole entry: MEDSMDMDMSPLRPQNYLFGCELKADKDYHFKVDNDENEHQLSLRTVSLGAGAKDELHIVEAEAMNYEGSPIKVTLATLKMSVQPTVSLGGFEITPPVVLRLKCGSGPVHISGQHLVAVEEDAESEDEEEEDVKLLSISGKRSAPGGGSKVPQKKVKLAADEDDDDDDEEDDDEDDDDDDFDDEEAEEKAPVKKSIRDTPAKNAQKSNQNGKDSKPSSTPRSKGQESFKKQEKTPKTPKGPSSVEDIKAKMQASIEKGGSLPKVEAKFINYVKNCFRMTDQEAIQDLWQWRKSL
UniProt P07384: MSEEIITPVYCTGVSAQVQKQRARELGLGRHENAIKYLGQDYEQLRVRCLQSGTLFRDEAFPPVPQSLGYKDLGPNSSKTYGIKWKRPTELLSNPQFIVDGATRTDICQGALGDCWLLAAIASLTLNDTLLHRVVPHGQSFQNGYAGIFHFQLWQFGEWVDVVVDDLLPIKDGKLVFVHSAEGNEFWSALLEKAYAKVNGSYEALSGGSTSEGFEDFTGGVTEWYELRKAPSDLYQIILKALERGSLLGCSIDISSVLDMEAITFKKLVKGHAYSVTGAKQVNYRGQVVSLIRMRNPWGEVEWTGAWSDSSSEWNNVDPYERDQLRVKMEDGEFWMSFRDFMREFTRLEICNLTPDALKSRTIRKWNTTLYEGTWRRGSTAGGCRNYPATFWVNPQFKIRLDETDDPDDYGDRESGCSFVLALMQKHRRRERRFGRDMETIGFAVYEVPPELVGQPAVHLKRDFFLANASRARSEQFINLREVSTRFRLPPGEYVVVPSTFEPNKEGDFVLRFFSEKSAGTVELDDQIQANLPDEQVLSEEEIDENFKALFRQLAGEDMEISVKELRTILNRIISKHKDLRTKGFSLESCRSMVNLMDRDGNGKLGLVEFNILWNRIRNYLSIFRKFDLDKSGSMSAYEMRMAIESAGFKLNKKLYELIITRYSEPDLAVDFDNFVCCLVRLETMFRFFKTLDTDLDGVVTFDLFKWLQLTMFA
UniProt P09110: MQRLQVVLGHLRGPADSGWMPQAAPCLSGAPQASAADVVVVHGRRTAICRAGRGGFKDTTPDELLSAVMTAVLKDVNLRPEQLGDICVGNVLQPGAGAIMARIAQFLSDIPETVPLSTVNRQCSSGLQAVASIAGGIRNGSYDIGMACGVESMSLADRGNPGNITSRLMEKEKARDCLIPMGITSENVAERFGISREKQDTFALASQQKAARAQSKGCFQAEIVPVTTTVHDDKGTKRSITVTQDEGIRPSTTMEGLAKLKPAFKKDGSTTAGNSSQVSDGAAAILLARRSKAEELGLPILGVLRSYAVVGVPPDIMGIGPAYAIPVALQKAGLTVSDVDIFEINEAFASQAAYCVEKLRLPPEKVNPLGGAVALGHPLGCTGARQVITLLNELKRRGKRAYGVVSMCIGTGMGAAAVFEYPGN
UniProt P07339: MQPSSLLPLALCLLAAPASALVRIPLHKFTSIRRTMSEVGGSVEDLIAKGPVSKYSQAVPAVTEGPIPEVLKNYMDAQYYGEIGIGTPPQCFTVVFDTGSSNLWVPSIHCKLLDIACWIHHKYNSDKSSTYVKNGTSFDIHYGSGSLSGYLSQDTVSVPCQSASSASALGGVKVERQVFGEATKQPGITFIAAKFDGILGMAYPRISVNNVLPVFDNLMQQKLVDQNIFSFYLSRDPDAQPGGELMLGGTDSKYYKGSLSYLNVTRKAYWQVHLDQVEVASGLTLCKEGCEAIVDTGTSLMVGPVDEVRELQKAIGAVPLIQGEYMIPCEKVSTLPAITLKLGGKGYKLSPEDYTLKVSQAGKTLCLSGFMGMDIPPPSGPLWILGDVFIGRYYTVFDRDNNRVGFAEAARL
UniProt P08567: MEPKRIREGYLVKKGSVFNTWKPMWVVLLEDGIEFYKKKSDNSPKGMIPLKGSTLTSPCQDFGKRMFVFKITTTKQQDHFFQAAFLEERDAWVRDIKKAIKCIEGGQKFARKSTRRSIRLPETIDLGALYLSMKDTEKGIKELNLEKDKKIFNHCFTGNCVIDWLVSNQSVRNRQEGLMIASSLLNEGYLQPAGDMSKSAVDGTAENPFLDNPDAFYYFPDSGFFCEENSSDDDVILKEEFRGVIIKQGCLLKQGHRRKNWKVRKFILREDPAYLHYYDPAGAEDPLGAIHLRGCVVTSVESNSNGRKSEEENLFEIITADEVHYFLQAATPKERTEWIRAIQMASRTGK
UniProt Q8IVS2: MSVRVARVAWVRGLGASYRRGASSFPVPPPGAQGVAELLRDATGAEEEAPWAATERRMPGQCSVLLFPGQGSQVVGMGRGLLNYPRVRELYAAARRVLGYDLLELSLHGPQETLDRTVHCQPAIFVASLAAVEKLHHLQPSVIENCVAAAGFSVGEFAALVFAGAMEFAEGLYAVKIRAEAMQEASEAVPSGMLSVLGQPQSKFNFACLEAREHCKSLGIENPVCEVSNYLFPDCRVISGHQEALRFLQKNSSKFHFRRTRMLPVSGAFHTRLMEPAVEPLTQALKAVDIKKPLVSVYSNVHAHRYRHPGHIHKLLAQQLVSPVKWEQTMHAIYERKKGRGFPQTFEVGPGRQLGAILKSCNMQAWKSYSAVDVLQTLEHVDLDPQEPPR
UniProt P12235: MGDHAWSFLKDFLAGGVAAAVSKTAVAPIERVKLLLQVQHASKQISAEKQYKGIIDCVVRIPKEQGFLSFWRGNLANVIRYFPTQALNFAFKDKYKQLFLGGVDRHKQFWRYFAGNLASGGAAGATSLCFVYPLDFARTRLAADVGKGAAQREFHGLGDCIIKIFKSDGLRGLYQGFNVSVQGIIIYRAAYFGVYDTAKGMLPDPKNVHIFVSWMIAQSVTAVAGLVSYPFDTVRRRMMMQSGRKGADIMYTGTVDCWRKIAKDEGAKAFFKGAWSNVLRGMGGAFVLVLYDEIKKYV
UniProt P10074: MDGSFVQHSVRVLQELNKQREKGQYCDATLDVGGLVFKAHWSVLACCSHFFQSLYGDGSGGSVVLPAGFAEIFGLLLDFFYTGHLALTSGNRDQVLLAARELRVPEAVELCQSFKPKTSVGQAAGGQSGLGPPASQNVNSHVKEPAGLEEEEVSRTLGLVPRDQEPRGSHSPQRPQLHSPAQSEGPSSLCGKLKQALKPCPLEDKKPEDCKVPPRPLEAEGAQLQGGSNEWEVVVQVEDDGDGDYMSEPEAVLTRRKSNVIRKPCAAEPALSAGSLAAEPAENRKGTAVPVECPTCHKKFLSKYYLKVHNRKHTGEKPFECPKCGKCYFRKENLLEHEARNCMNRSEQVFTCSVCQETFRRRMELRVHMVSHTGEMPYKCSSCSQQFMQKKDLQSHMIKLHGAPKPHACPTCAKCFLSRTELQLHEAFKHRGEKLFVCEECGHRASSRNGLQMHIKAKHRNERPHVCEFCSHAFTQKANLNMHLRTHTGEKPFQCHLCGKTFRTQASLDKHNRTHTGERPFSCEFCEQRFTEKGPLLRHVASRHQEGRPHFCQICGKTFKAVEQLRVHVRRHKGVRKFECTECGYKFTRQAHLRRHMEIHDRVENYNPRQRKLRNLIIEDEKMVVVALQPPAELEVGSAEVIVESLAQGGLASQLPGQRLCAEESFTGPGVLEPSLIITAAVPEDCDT

Compound: Nc1ncnc2c1ncn2[C@@H]1O[C@H](COP(=O)(O)OP(=O)(O)OP(=O)(O)O)[C@@H](O)[C@H]1O [adenosine triphosphate]
Assay: NP40-soluble protein abundance relative to vehicle (solubility fold change) (ratio); higher = more soluble protein in presence of ATP
Conditions: concentration: 1mM
Method in brief: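 Jurkat crude lysate (Dounce-homogenised) was treated with eight concentrations from 0.1 to 10 mM for 10 min at room temperature, then 3 min at 37 °C. It was solubilised with 0.8% NP40 and benzonase (60 min, 4 °C) and ultracentrifuged, and the supernatant was TMT-labelled for LC-MS/MS. Intensities were vsn-normalised, and the value is the fold change against the NP40-processed vehicle per replicate, from three independent experiments.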

Target	NP40-soluble protein abundance
SRF (UniProt P11831)	0.97 ± 0.057
UniProt P16298 and related entries	0.947 ± 0.036
TOMM40 (UniProt O96008)	0.968 ± 0.063
PRKAR1A (UniProt P10644)	0.995 ± 0.04
RAP2A (UniProt P10114)	1 ± 0.25
UniProt P10636-6|P10636-7	0.937 ± 0.083
RPLP2 (UniProt P05387)	0.952 ± 0.11
ISG15 (UniProt P05161)	0.984 ± 0.078
CRYZL1 (UniProt O95825)	1.04 ± 0.09
UniProt P16083 and related entries	0.957 ± 0.021
ACYP1 (UniProt P07311)	0.916 ± 0.053
UniProt P14209 and related entries	0.912 ± 0.2
UniProt P14324-2	0.934 ± 0.056
TGFB1 (UniProt P01137)	0.957 ± 0.013
GTF2F2 (UniProt P13984)	0.973 ± 0.013
RPS2 (UniProt P15880)	0.877 ± 0.047
P0DN79 and related entries (UniProt P35520+P0DN79)	0.948 ± 0.049
LCP1 (UniProt P13796)	0.962 ± 0.048
UniProt P09564	1.03 ± 0.082

Target	NP40-soluble protein abundance
EPRS (UniProt P07814)	1.04 ± 0.012
CAT (UniProt P04040)	0.996 ± 0.044
UniProt P06748 and related entries	0.998 ± 0.066
DARS (UniProt P14868)	1.05 ± 0.083
CAPN1 (UniProt P07384)	1.05 ± 0.11
ACAA1 (UniProt P09110)	0.972 ± 0.041
UniProt P13807 and related entries	1.06 ± 0.088
CTSD (UniProt P07339)	0.97 ± 0.012
PLEK (UniProt P08567)	1.05 ± 0.041
P00395 and related entries (UniProt Q8IVS2)	0.957 ± 0.15
SLC25A4 (UniProt P12235)	0.958 ± 0.17
HCLS1 (UniProt P14317)	0.941 ± 0.062
OAT (UniProt P04181)	0.978 ± 0.029
ZBTB48 (UniProt P10074)	1.02 ± 0.068
UniProt O95980	1.05 ± 0.027
UniProt P04075 and related entries	0.994 ± 0.061
UniProt P12931 and related entries	1.01 ± 0.14
ADA (UniProt P00813)	0.989 ± 0.19

Same assay, conditions: concentration: 2mM

Target	NP40-soluble protein abundance
SRF (UniProt P11831)	1.01 ± 0.068
UniProt P16298 and related entries	0.94 ± 0.012
TOMM40 (UniProt O96008)	0.985 ± 0.064
PRKAR1A (UniProt P10644)	0.975 ± 0.048
RAP2A (UniProt P10114)	1.12 ± 0.22
UniProt P10636-6|P10636-7	0.956 ± 0.023
RPLP2 (UniProt P05387)	0.902 ± 0.15
ISG15 (UniProt P05161)	0.989 ± 0.048
CRYZL1 (UniProt O95825)	1.06 ± 0.078
UniProt P16083 and related entries	0.991 ± 0.029
ACYP1 (UniProt P07311)	0.928 ± 0.018
UniProt P14209 and related entries	0.932 ± 0.16
UniProt P14324-2	0.957 ± 0.093
TGFB1 (UniProt P01137)	0.94 ± 0.021
GTF2F2 (UniProt P13984)	0.981 ± 0.013
RPS2 (UniProt P15880)	0.832 ± 0.081
P0DN79 and related entries (UniProt P35520+P0DN79)	0.919 ± 0.03
LCP1 (UniProt P13796)	0.931 ± 0.031
UniProt P09564	1.03 ± 0.043

Target	NP40-soluble protein abundance
EPRS (UniProt P07814)	0.9662 ± 0.0063
CAT (UniProt P04040)	0.964 ± 0.023
UniProt P06748 and related entries	1.02 ± 0.039
DARS (UniProt P14868)	0.978 ± 0.039
CAPN1 (UniProt P07384)	1.03 ± 0.082
ACAA1 (UniProt P09110)	1.01 ± 0.025
UniProt P13807 and related entries	0.933 ± 0.069
CTSD (UniProt P07339)	0.9718 ± 0.0087
PLEK (UniProt P08567)	1.05 ± 0.049
P00395 and related entries (UniProt Q8IVS2)	0.952 ± 0.11
SLC25A4 (UniProt P12235)	0.925 ± 0.076
HCLS1 (UniProt P14317)	0.937 ± 0.017
OAT (UniProt P04181)	0.955 ± 0.02
ZBTB48 (UniProt P10074)	0.983 ± 0.076
UniProt O95980	1.02 ± 0.096
UniProt P04075 and related entries	0.982 ± 0.018
UniProt P12931 and related entries	1.01 ± 0.057
ADA (UniProt P00813)	0.894 ± 0.19

Same assay, conditions: concentration: 4mM

Target	NP40-soluble protein abundance
SRF (UniProt P11831)	0.966 ± 0.056
UniProt P16298 and related entries	0.929 ± 0.0096
TOMM40 (UniProt O96008)	0.957 ± 0.049
PRKAR1A (UniProt P10644)	0.992 ± 0.013
RAP2A (UniProt P10114)	1.13 ± 0.21
UniProt P10636-6|P10636-7	0.936 ± 0.053
RPLP2 (UniProt P05387)	0.939 ± 0.069
ISG15 (UniProt P05161)	0.955 ± 0.036
CRYZL1 (UniProt O95825)	1.03 ± 0.051
UniProt P16083 and related entries	0.977 ± 0.015
ACYP1 (UniProt P07311)	0.884 ± 0.036
UniProt P14209 and related entries	0.996 ± 0.077
UniProt P14324-2	0.902 ± 0.072
TGFB1 (UniProt P01137)	0.936 ± 0.023
GTF2F2 (UniProt P13984)	0.964 ± 0.038
RPS2 (UniProt P15880)	0.78 ± 0.098
P0DN79 and related entries (UniProt P35520+P0DN79)	0.943 ± 0.05
LCP1 (UniProt P13796)	0.981 ± 0.094
UniProt P09564	1.07 ± 0.039

Target	NP40-soluble protein abundance
EPRS (UniProt P07814)	0.93 ± 0.017
CAT (UniProt P04040)	0.956 ± 0.045
UniProt P06748 and related entries	0.999 ± 0.069
DARS (UniProt P14868)	0.968 ± 0.027
CAPN1 (UniProt P07384)	1 ± 0.088
ACAA1 (UniProt P09110)	0.978 ± 0.011
UniProt P13807 and related entries	0.924 ± 0.099
CTSD (UniProt P07339)	0.962 ± 0.013
PLEK (UniProt P08567)	0.94 ± 0.036
P00395 and related entries (UniProt Q8IVS2)	0.912 ± 0.069
SLC25A4 (UniProt P12235)	0.924 ± 0.097
HCLS1 (UniProt P14317)	0.904 ± 0.025
OAT (UniProt P04181)	0.918 ± 0.043
ZBTB48 (UniProt P10074)	0.931 ± 0.047
UniProt O95980	1.02 ± 0.089
UniProt P04075 and related entries	0.946 ± 0.036
UniProt P12931 and related entries	1.01 ± 0.059
ADA (UniProt P00813)	0.93 ± 0.15
